{"source": "PubChem BioAssay AID2685", "about": "(National Center for Advancing Translational Sciences (NCATS), 2010)", "assay": "qHTS Assay for Lipid Storage Modulators in Drosophila S3 Cells;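 for cell number change: cells counted by Cell Tracker Red CMTPX staining in the red channel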", "conditions": "BODIPY lipid droplet fluorescence, 18-24 h; for cell number change: measured here: cell count max response, cells fed with added oleic acid", "procedure,_shortened": "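Laser-scanning cytometry quantifies lipid droplet accumulation (500–530 nm total intensity; droplet/cell object ratio) in oleic acid-fed (400 uM added) Drosophila S3 cells treated with a concentration series. 20 uM Triacsin C defined 100% inhibition.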", "key": {"[1]": {"conditions": "measured here: cell number channel AC50, cells fed with added oleic acid"}, "[2]": {"conditions": "measured here: lipid fluorescence (Fed channel) AC50, cells fed with added oleic acid"}}, "note": "The list shows a part of the results. The main result of the screen is listed elsewhere. These columns were measured beside it and carry no call. Most of these compounds were active or inconclusive in the main read-out, so they are no random draw. The note in brackets gives the kind of curve behind each potency; many fits are weak.", "data": [{"smiles": "COc1ccc(C(C[N+](=O)[O-])c2c(-c3ccccc3)cc3ccccn23)cc1OC", "note": "(centres undefined)", "values": [{"measurement": "cell number change", "value": 88, "unit": "%"}, {"measurement": "AC50", "setting": "[1]", "value": "7.31 µM [rising, partial curve]"}, {"measurement": "AC50", "setting": "[2]", "value": "0.00517 µM [falling, full curve, poor fit]"}]}, {"smiles": "CC1CC1c1ccc(/C=C(\\C#N)C(=O)Nc2cccc(Cl)c2Cl)o1", "note": "(centres undefined)", "values": [{"measurement": "cell number change", "value": 0.626, "unit": "%"}, {"measurement": "AC50", "setting": "[1]", "value": "6.51 µM [falling, single point]"}, {"measurement": "AC50", "setting": "[2]", "value": "6.51 µM [falling, single point]"}]}, {"smiles": "COc1ccccc1-c1sc2ccccc2c1-c1ccc2c(c1)OCO2", "values": [{"measurement": "cell number change", "value": 11.3, "unit": "%"}, {"measurement": "AC50", "setting": "[2]", "value": "29.1 µM [rising, single point]"}]}, {"smiles": "Oc1ccc(/C=N/N(c2ccccc2)c2ccccc2)c(O)c1O", "values": [{"measurement": "cell number change", "value": -25.6, "unit": "%"}]}, {"smiles": "CCC(C)(C)NC(=O)C(c1ccc(OC)cc1)N(C(=O)CCC(=O)Nc1cc(C)on1)c1cccc(OC)c1", "note": "(centres undefined)", "values": [{"measurement": "cell number change", "value": -2.92, "unit": "%"}]}, {"smiles": "COc1ccccc1-c1c(C)nn2c(-c3ccccc3)cc(C)nc12", "values": [{"measurement": "cell number change", "value": 41.7, "unit": "%"}, {"measurement": "AC50", "setting": "[1]", "value": "29.1 µM [rising, single point]"}, {"measurement": "AC50", "setting": "[2]", "value": "0.517 µM [rising, full curve]"}]}, {"smiles": "Cc1occc1-c1nnc(SCC(=O)NCC2CCCO2)n1C", "note": "(centres undefined)", "values": [{"measurement": "cell number change", "value": -21.9, "unit": "%"}, {"measurement": "AC50", "setting": "[1]", "value": "4.61 µM [falling, single point]"}, {"measurement": "AC50", "setting": "[2]", "value": "3.26 µM [falling, full curve]"}]}, {"smiles": "C=CCn1c(SCC(=O)N2CCOCC2)nc2scc(-c3ccco3)c2c1=O", "values": [{"measurement": "cell number change", "value": -35.2, "unit": "%"}, {"measurement": "AC50", "setting": "[1]", "value": "11.6 µM [falling, partial curve]"}, {"measurement": "AC50", "setting": "[2]", "value": "18.4 µM [falling, partial curve, poor fit]"}]}, {"smiles": "O=C(CSc1nnnn1-c1ccccc1)Nc1ccccc1", "values": [{"measurement": "cell number change", "value": 16.6, "unit": "%"}, {"measurement": "AC50", "setting": "[2]", "value": "6.51 µM [rising, single point]"}]}, {"smiles": "CN(C)c1ccc(-c2ccc3c(=O)c4ccccc4n(C)c3c2)cn1", "values": [{"measurement": "AC50", "setting": "[2]", "value": "16.4 µM [falling, single point]"}]}, {"smiles": "CSc1nc(-c2ccco2)cc(-c2ccccc2)c1C#N", "values": [{"measurement": "cell number change", "value": -32.7, "unit": "%"}, {"measurement": "AC50", "setting": "[1]", "value": "0.164 µM [falling, full curve, poor fit]"}, {"measurement": "AC50", "setting": "[2]", "value": "0.00517 µM [falling, full curve, poor fit]"}]}, {"smiles": "OC1CN=C2Sc3ccccc3N2C1", "note": "(centres undefined)", "values": [{"measurement": "cell number change", "value": -213, "unit": "%"}, {"measurement": "AC50", "setting": "[1]", "value": "29.1 µM [falling, partial curve]"}, {"measurement": "AC50", "setting": "[2]", "value": "20.6 µM [falling, partial curve]"}]}, {"smiles": "O=C1C=C(c2cc(Cl)cc(Cl)c2)C[C@@H](c2ccc3c(c2)OCO3)C1", "values": [{"measurement": "cell number change", "value": -7.18, "unit": "%"}, {"measurement": "AC50", "setting": "[2]", "value": "0.116 µM [rising, full curve]"}]}, {"smiles": "COc1ccc(C(=O)Nc2ccccc2C(N)=O)cc1", "values": [{"measurement": "cell number change", "value": 7.28, "unit": "%"}]}, {"smiles": "O=C(COC(=O)c1cc(=O)[nH]c2ccccc12)NC(=O)NC1CCCCC1", "values": [{"measurement": "cell number change", "value": 2.59, "unit": "%"}, {"measurement": "AC50", "setting": "[2]", "value": "0.116 µM [falling, full curve, poor fit]"}]}, {"smiles": "CC(C)(C)C(=O)Nc1nnc(SCC(=O)NC2CC2)s1", "values": [{"measurement": "cell number change", "value": 14.7, "unit": "%"}, {"measurement": "AC50", "setting": "[2]", "value": "29.1 µM [falling, single point]"}]}, {"smiles": "O=C(Nc1ncc(Cc2ccc(Cl)cc2Cl)s1)c1ccc([N+](=O)[O-])cc1", "values": [{"measurement": "cell number change", "value": -11.4, "unit": "%"}, {"measurement": "AC50", "setting": "[1]", "value": "0.146 µM [falling, full curve, poor fit]"}]}, {"smiles": "CCOc1ccc(CCNC(=O)COC(=O)c2ccc(OC(C)C)cc2)cc1OCC", "values": [{"measurement": "cell number change", "value": -95, "unit": "%"}, {"measurement": "AC50", "setting": "[1]", "value": "3.26 µM [falling, partial curve]"}, {"measurement": "AC50", "setting": "[2]", "value": "1.16 µM [falling, full curve]"}]}, {"smiles": "COc1ccc(NC(=O)c2cccnc2)c([N+](=O)[O-])c1", "values": [{"measurement": "cell number change", "value": 6.73, "unit": "%"}]}, {"smiles": "CCN1CCN(C(=O)c2ccccc2N(Cc2ccccc2)S(=O)(=O)c2ccc(OC)cc2)CC1", "values": [{"measurement": "cell number change", "value": 14, "unit": "%"}, {"measurement": "AC50", "setting": "[2]", "value": "29.1 µM [rising, single point]"}]}, {"smiles": "FC(F)(F)c1cccc(NC(=S)Nc2ccc(Cl)cc2Cl)c1", "values": [{"measurement": "cell number change", "value": -22.1, "unit": "%"}]}, {"smiles": "Cc1nn(-c2ccc(Cl)cc2)c2sc(C(=O)N3CCN(C(=O)c4ccco4)CC3)cc12", "values": [{"measurement": "AC50", "setting": "[1]", "value": "0.291 µM [rising, partial curve, poor fit]"}]}, {"smiles": "CC(CCCC(C)(C)O)NC(=O)c1cc(COc2ccc3ncccc3c2)on1", "note": "(centres undefined)", "values": [{"measurement": "cell number change", "value": -56.8, "unit": "%"}, {"measurement": "AC50", "setting": "[1]", "value": "10.3 µM [falling, partial curve]"}, {"measurement": "AC50", "setting": "[2]", "value": "7.31 µM [falling, partial curve]"}]}, {"smiles": "Cn1c(CCNC(=O)c2ccccc2)nc2cc(NC(=O)C3CCCCC3)ccc21", "values": [{"measurement": "AC50", "setting": "[1]", "value": "6.51 µM [rising, single point]"}]}, {"smiles": "O=[N+]([O-])c1cc(S(=O)(=O)N2CCCCC2)ccc1NCCN1CCOCC1", "values": [{"measurement": "cell number change", "value": -0.797, "unit": "%"}]}, {"smiles": "CSc1ncccc1C(=O)Nc1ccc(OC(F)(F)F)cc1", "values": [{"measurement": "cell number change", "value": 42.6, "unit": "%"}, {"measurement": "AC50", "setting": "[1]", "value": "0.461 µM [rising, full curve]"}, {"measurement": "AC50", "setting": "[2]", "value": "29.1 µM [rising, partial curve, poor fit]"}]}, {"smiles": "O=C(CN1C(=O)NC2(CCCCCC2)C1=O)N1CCN(S(=O)(=O)c2ccccc2)CC1", "values": [{"measurement": "cell number change", "value": -104, "unit": "%"}, {"measurement": "AC50", "setting": "[1]", "value": "29.1 µM [falling, single point]"}, {"measurement": "AC50", "setting": "[2]", "value": "29.1 µM [falling, single point]"}]}, {"smiles": "O=C(Oc1ccc([N+](=O)[O-])cc1)c1cncc(Br)c1", "values": [{"measurement": "cell number change", "value": -2.57, "unit": "%"}, {"measurement": "AC50", "setting": "[2]", "value": "14.6 µM [rising, single point]"}]}, {"smiles": "O=C(CSc1nc(C(F)(F)F)cc(=O)[nH]1)Nc1ccc2c(c1)OCCO2", "values": [{"measurement": "cell number change", "value": 75, "unit": "%"}, {"measurement": "AC50", "setting": "[1]", "value": "29.1 µM [rising, single point]"}]}, {"smiles": "Cc1[nH]c2ccccc2c1C(c1ccncc1)N1CCCCC1", "note": "(centres undefined)", "values": [{"measurement": "cell number change", "value": -9.34, "unit": "%"}, {"measurement": "AC50", "setting": "[1]", "value": "0.00461 µM [falling, full curve, poor fit]"}, {"measurement": "AC50", "setting": "[2]", "value": "2.91 µM [falling, full curve]"}]}, {"smiles": "Cc1cc(C)c2c(n1)sc1c(=O)[nH]c(SCc3ccccc3)nc12", "values": [{"measurement": "cell number change", "value": -24.2, "unit": "%"}, {"measurement": "AC50", "setting": "[2]", "value": "0.0731 µM [falling, full curve]"}]}, {"smiles": "CN1CCN(CC(O)COCCOc2ccc(Br)cc2)CC1", "note": "(centres undefined)", "values": [{"measurement": "cell number change", "value": 12.2, "unit": "%"}, {"measurement": "AC50", "setting": "[2]", "value": "0.731 µM [rising, full curve, poor fit]"}]}, {"smiles": "COCCNC(=O)c1c(N)n(-c2ccccc2)c2nc3ccccc3nc12", "values": [{"measurement": "cell number change", "value": 25.2, "unit": "%"}, {"measurement": "AC50", "setting": "[1]", "value": "2.06 µM [rising, full curve, poor fit]"}, {"measurement": "AC50", "setting": "[2]", "value": "2.31 µM [rising, partial curve]"}]}, {"smiles": "CN(CCOc1ccccc1)CC(=O)Nc1ccc(Cl)c(S(=O)(=O)N(C)C)c1", "values": [{"measurement": "AC50", "setting": "[2]", "value": "20.6 µM [rising, single point]"}]}, {"smiles": "Cc1nc2cc(C(=O)NCCN3CCOCC3)ccc2n1-c1ccc(F)cc1F", "values": [{"measurement": "AC50", "setting": "[1]", "value": "6.51 µM [rising, single point]"}]}, {"smiles": "COC(=O)c1ccc(S(=O)(=O)NCc2ccc(S(N)(=O)=O)cc2)o1", "values": [{"measurement": "AC50", "setting": "[1]", "value": "0.116 µM [falling, full curve, poor fit]"}, {"measurement": "AC50", "setting": "[2]", "value": "0.206 µM [falling, full curve, poor fit]"}]}]}
